Some of the results follow.
Tests used:
Experiment in all cases: log2 fold change, soluble protein after heating vs DMSO (PISA); higher = thermal stabilisation; K562 cells, 10 uM, 30 min; active = over 0.2 and 3.5 SD of the protein, either way, in both replicates (recomputed)
[1] = compound: CS(=O)(=O)c1ccc(-c2cnc(N)c(C(=O)Nc3ccccc3)n2)cc1
How it was run: (§1)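 K562 cells at 2×10^6 cells/mL were treated with 10 μM compound for 30 min. Aliquots were heated for 3 min across 48°C-58°C, pooled, and extracted in PBS with 0.5% NP-40 at 4°C; soluble protein was the supernatant after 21,000xg for 90 min. Soluble protein was quantified by TMTpro 16plex LC-MS/MS with channel sums equalised, and reported as log2 fold change in thermal stability against DMSO controls, with values from duplicates.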

The chains behind the UniProt entries cited, without tags or fusion partners. Where a name states a change or a piece, a line headed by the entry shows the natural chain unless it says otherwise.
UniProt Q32MZ4: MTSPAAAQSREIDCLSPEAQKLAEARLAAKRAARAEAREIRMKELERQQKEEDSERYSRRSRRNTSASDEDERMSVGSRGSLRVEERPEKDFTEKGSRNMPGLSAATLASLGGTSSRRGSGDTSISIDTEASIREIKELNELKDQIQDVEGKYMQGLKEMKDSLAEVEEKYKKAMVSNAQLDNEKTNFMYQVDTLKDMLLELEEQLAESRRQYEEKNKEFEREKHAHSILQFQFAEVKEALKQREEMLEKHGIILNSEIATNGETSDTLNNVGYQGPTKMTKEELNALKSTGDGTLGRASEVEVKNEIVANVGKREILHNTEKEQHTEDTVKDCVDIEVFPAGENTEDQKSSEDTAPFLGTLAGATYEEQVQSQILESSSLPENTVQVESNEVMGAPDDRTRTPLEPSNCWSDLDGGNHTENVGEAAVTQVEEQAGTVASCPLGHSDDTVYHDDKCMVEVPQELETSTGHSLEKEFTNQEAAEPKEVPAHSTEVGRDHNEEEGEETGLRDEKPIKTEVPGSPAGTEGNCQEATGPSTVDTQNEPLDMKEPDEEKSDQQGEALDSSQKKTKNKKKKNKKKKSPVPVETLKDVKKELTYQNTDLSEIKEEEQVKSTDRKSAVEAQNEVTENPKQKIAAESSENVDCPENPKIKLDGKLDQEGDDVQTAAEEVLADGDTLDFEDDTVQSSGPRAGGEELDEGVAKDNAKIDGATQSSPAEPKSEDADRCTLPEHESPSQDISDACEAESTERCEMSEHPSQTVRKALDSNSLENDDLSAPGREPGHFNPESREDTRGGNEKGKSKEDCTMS
UniProt O94822: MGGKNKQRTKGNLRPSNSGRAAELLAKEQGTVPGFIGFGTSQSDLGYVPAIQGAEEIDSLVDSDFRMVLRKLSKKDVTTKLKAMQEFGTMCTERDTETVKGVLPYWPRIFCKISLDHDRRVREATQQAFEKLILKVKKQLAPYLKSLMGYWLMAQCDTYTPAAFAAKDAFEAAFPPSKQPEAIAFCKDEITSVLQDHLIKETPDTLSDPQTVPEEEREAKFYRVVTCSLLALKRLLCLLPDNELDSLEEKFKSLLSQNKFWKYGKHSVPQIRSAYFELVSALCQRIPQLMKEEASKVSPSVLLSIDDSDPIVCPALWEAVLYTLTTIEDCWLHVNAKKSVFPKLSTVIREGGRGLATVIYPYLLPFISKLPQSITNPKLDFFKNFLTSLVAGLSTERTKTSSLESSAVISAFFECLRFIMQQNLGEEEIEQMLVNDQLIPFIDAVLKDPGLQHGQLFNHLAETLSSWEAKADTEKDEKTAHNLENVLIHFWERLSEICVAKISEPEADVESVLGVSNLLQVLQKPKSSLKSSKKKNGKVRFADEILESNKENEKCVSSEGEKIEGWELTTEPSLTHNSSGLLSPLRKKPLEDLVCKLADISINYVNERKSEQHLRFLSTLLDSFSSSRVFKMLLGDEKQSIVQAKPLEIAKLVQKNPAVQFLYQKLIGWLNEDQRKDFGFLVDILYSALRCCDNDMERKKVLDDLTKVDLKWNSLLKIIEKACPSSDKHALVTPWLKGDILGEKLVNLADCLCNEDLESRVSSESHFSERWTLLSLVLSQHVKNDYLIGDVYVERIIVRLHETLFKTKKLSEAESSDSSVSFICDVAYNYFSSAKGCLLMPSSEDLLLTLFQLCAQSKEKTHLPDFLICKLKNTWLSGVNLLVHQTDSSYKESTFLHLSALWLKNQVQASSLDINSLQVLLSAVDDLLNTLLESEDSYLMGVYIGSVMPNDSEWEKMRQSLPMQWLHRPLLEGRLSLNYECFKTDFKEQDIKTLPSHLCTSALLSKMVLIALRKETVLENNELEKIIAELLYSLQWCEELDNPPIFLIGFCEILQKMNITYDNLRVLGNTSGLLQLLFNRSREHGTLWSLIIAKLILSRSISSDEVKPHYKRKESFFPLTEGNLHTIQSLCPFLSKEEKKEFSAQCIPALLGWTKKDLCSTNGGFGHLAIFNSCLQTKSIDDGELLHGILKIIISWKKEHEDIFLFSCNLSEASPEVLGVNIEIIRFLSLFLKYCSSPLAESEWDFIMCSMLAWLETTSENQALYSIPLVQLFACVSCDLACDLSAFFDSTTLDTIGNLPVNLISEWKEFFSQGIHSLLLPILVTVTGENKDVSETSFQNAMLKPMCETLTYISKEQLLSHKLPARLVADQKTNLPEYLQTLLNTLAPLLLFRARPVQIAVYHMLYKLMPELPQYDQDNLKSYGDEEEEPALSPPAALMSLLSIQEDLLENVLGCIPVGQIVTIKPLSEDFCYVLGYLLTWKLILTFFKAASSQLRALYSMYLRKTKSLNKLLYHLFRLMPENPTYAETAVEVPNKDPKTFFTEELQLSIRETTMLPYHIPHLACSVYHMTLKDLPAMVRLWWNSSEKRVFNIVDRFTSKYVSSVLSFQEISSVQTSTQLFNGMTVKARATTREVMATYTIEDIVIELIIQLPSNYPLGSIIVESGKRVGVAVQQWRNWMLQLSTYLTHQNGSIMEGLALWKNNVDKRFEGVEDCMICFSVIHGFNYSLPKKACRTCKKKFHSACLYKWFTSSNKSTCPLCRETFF
UniProt Q7L1W4: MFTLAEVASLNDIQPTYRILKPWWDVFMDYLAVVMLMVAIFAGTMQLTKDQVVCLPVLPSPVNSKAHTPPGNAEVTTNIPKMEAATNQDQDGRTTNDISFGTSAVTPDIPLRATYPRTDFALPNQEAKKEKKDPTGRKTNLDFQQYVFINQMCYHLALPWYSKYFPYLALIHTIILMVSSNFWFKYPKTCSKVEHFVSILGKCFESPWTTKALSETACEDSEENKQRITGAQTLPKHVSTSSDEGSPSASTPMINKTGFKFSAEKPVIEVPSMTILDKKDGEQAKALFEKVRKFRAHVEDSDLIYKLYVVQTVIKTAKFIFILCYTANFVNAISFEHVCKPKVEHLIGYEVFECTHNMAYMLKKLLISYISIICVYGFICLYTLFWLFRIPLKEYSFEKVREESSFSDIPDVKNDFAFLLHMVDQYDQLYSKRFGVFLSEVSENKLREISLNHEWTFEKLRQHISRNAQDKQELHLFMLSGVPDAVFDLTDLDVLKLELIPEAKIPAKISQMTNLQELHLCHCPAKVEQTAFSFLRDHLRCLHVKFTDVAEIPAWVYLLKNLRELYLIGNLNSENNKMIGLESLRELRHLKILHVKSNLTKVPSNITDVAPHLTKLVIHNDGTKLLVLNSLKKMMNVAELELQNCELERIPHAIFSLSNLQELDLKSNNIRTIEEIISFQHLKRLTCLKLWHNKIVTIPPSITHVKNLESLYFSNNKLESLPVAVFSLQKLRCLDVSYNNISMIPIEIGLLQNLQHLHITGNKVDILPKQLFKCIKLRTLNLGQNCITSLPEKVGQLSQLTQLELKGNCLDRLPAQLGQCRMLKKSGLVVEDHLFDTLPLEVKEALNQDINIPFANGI
UniProt Q86V48: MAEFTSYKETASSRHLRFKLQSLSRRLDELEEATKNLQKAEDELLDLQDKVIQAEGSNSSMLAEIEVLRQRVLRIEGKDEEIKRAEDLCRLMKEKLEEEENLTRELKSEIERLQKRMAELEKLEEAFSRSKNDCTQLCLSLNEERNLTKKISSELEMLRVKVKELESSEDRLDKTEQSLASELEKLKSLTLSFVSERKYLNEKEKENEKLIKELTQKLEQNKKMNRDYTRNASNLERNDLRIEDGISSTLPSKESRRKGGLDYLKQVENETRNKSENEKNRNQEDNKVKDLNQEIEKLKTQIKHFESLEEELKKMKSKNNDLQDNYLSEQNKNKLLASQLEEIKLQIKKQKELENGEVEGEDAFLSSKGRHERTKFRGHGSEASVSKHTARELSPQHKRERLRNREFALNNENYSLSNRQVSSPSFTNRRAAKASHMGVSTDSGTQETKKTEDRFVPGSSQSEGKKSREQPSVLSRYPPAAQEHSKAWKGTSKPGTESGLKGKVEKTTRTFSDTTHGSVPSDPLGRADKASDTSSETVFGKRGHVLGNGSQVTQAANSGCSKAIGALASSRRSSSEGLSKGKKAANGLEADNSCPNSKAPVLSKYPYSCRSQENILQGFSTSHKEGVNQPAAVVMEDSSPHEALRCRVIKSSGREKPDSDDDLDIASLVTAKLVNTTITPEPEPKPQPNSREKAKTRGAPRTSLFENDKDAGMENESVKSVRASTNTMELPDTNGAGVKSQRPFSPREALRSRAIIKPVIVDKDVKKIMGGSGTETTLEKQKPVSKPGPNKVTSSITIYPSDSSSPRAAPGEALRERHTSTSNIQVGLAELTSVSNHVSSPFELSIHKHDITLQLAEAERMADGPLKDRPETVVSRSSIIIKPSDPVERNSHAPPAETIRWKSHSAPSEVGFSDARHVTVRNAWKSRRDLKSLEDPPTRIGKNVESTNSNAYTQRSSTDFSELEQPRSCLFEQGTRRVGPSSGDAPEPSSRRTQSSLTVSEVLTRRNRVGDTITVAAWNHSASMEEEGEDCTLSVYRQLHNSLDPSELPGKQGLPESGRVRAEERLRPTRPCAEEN
UniProt Q8WV07: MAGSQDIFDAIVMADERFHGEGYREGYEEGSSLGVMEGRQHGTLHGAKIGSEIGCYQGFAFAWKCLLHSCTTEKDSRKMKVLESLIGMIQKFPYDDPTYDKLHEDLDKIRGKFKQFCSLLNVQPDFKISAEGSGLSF
UniProt O95372: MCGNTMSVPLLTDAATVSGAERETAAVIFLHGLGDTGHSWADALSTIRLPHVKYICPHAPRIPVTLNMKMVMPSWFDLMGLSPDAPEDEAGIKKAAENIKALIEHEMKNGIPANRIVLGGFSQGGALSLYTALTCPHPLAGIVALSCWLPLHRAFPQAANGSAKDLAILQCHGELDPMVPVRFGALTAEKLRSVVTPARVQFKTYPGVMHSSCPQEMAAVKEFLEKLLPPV
UniProt Q8WXG6, whole entry, looked up: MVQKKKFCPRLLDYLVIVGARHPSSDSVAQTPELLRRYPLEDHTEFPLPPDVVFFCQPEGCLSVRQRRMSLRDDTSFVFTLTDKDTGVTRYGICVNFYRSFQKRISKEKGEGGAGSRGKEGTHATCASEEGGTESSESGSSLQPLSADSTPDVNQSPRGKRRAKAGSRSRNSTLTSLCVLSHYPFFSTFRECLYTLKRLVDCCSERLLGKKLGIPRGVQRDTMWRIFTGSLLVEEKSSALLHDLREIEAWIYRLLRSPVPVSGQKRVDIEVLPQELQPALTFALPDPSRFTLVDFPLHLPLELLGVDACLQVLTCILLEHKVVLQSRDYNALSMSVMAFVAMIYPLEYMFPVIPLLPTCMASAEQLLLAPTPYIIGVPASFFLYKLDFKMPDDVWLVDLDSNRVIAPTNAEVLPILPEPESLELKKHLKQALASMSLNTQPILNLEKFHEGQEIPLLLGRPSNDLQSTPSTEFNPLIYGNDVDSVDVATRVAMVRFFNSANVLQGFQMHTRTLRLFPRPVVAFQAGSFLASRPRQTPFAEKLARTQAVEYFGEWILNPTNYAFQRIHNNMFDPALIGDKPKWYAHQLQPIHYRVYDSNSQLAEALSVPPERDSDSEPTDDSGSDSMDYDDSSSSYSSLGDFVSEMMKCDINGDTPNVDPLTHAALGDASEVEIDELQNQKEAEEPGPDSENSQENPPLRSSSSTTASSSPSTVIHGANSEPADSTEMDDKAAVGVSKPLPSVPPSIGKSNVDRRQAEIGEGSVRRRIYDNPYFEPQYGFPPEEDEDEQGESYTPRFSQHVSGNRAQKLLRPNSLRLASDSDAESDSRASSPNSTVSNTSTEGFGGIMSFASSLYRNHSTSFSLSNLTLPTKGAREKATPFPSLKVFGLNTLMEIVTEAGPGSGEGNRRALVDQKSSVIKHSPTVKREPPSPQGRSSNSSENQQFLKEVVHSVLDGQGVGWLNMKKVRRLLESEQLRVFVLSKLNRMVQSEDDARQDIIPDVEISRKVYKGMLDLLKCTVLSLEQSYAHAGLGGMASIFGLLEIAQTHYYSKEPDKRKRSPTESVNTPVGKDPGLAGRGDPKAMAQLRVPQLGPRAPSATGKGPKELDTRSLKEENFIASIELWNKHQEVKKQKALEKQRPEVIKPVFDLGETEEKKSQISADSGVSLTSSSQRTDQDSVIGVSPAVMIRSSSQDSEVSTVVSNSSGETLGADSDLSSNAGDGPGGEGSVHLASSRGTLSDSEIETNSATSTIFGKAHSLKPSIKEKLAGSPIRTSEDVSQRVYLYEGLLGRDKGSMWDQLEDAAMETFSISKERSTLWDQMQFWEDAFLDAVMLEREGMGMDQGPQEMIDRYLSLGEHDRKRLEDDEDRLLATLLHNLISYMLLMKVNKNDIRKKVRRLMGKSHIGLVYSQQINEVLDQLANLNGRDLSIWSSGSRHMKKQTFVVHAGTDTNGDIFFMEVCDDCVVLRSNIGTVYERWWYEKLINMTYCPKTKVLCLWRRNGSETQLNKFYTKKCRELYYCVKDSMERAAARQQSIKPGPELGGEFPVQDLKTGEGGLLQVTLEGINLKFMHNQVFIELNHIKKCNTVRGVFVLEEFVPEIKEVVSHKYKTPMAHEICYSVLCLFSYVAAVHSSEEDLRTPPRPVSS

crizotinib = compound: C[C@@H](Oc1cc(-c2cnn(C3CCNCC3)c2)cnc1N)c1c(Cl)ccc(F)c1Cl [crizotinib]
How it was run: as §1

[2] = compound: C[C@@H]1COCCN1C2=NC(=NC(=C2)C3(CC3)S(=O)(=O)C)C4=C5C=CNC5=CC=C4
How it was run: as §1

[3] = compound: C[C@H](C1=CC=C(C=C1)C(=O)NC2=C3C=CNC3=NC=C2)N
How it was run: as §1

gandotinib = compound: Cc1cc(Nc2cc(CN3CCOCC3)c3nc(C)c(Cc4ccc(Cl)cc4F)n3n2)n[nH]1 [gandotinib]
How it was run: as §1

[4] = compound: Cc1cc(SCc2sc(-c3ccc(C(F)(F)F)cc3)nc2C)ccc1OCC(=O)O
How it was run: as §1

doramapimod = compound: Cc1ccc(-n2nc(C(C)(C)C)cc2NC(=O)Nc2ccc(OCCN3CCOCC3)c3ccccc23)cc1 [doramapimod]
How it was run: as §1

ispinesib = compound: Cc1ccc(C(=O)N(CCCN)[C@@H](c2nc3cc(Cl)ccc3c(=O)n2Cc2ccccc2)C(C)C)cc1 [ispinesib]
How it was run: as §1

bafetinib = compound: Cc1ccc(NC(=O)c2ccc(CN3CC[C@H](N(C)C)C3)c(C(F)(F)F)c2)cc1Nc1nccc(-c2cncnc2)n1 [bafetinib]
How it was run: as §1

[5] = compound: Cc1cccc(CC(=O)N2CCc3c2ccc(-c2cn(C)c4ncnc(N)c24)c3F)n1
How it was run: as §1

nilotinib = compound: Cc1cn(-c2cc(NC(=O)c3ccc(C)c(Nc4nccc(-c5cccnc5)n4)c3)cc(C(F)(F)F)c2)cn1 [nilotinib]
How it was run: as §1

[6] = compound: Cc1nc(Nc2n[nH]c3c2CN(C(=O)N[C@H](CN(C)C)c2ccccc2)C3(C)C)c2sccc2n1
How it was run: as §1

dasatinib = compound: Cc1nc(Nc2ncc(C(=O)Nc3c(C)cccc3Cl)s2)cc(N2CCN(CCO)CC2)n1 [dasatinib]
How it was run: as §1

[7] = compound: Cc1ncc(-c2ccnc(Nc3ccc(S(C)(=O)=O)cc3)n2)n1C(C)C
How it was run: as §1

[8] = compound: Cn1cc(-c2ccc3c(c2)CCN3C(=O)Cc2cccc(C(F)(F)F)c2)c2c(N)ncnc21
How it was run: as §1

[9] = compound: Cn1cc(-c2ccc3nnc(C(F)(F)c4ccc5ncccc5c4)n3n2)cn1
How it was run: as §1

tipifarnib = compound: Cn1cncc1[C@@](N)(c1ccc(Cl)cc1)c1ccc2c(c1)c(-c1cccc(Cl)c1)cc(=O)n2C [tipifarnib]
How it was run: as §1

mubritinib = compound: FC(F)(F)c1ccc(/C=C/c2nc(COc3ccc(CCCCn4ccnn4)cc3)co2)cc1 [mubritinib]
How it was run: as §1

tozasertib = compound: Cc1cc(Nc2cc(N3CCN(C)CC3)nc(Sc3ccc(NC(=O)C4CC4)cc3)n2)n[nH]1 [tozasertib]
How it was run: as §1

duvelisib = compound: C[C@H](Nc1ncnc2nc[nH]c12)c1cc2cccc(Cl)c2c(=O)n1-c1ccccc1 [duvelisib]
How it was run: as §1

| Target | log2 fold change [1] | log2 fold change (crizotinib) | log2 fold change [2] | log2 fold change [3] | log2 fold change (gandotinib) | log2 fold change [4] | log2 fold change (doramapimod) | log2 fold change (ispinesib) | log2 fold change (bafetinib) | log2 fold change [5] | log2 fold change (nilotinib) | log2 fold change [6] | log2 fold change (dasatinib) | log2 fold change [7] | log2 fold change [8] | log2 fold change [9] | log2 fold change (tipifarnib) | log2 fold change (mubritinib) | log2 fold change (tozasertib) | log2 fold change (duvelisib) |
| --- | --- | --- | --- | --- | --- | --- | --- | --- | --- | --- | --- | --- | --- | --- | --- | --- | --- | --- | --- | --- |
| MAPKAPK3 (UniProt Q16644) | inactive: -0.033 | inactive: -0.078 | inactive: 0.048 | inactive: 0.115 | inactive: -0.043 | inactive: -0.021 | inactive: 0.314 | inactive: -0.111 | inactive: 0.258 | inactive: 0 | inactive: 0.281 | inactive: -0.03 | inactive: 0.002 | inactive: -0.032 | inactive: -0.005 | inactive: 0 | inactive: -0.048 | inactive: -0.04 | – | – |
| LRRFIP1 (UniProt Q32MZ4) | inactive: -0.005 | inactive: 0.037 | inactive: 0 | inactive: 0.025 | inactive: 0.056 | inactive: -0.059 | inactive: -0.025 | inactive: -0.019 | inactive: -0.034 | inactive: -0.043 | inactive: 0.008 | inactive: 0.002 | inactive: 0.038 | inactive: -0.016 | inactive: 0.024 | inactive: 0.013 | inactive: 0.016 | inactive: 0.035 | – | – |
| LSM5 (UniProt Q9Y4Y9) | inactive: -0.109 | inactive: -0.034 | inactive: -0.131 | inactive: 0.225 | inactive: -0.291 | – | inactive: 0.023 | inactive: 0.007 | inactive: 0.109 | inactive: 0.301 | inactive: 0.19 | inactive: -0.814 | – | inactive: -0.142 | inactive: 0.004 | inactive: -0.089 | – | inactive: 0.298 | inactive: -0.322 | – |
| LTN1 isoform 3 (UniProt O94822) | inactive: -0.049 | inactive: -0.136 | inactive: -0.077 | inactive: 0.128 | inactive: -0.234 | inactive: 0.11 | inactive: 0.021 | inactive: -0.229 | inactive: -0.036 | inactive: 0.039 | inactive: -0.079 | inactive: -0.031 | inactive: -0.122 | inactive: -0.052 | inactive: -0.09 | inactive: -0.042 | inactive: -0.151 | inactive: -0.009 | – | – |
| LYZ (UniProt P61626) | inactive: 0.051 | inactive: 0.343 | inactive: -0.036 | inactive: -0.103 | – | inactive: -0.226 | inactive: 0.091 | inactive: 0.602 | inactive: 0.958 | – | inactive: 0.022 | inactive: 0.098 | inactive: -0.16 | inactive: -0.015 | inactive: -0.002 | inactive: 0.248 | inactive: -0.176 | inactive: 0.288 | inactive: -0.018 | inactive: -0.107 |
| LRRC8D (UniProt Q7L1W4) | inactive: 0.124 | inactive: -0.069 | inactive: -0.308 | inactive: 0.265 | – | inactive: 0.203 | inactive: 0.044 | inactive: -0.212 | – | – | inactive: -0.001 | inactive: 0.014 | inactive: 0.022 | inactive: 0.002 | inactive: -0.103 | inactive: -0.091 | inactive: -0.023 | inactive: 0.018 | inactive: -0.281 | inactive: -0.105 |
| LUZP1 (UniProt Q86V48) | inactive: 0.183 | inactive: -0.259 | inactive: -0.265 | inactive: 0.191 | inactive: 0.058 | inactive: 0.206 | inactive: 0.017 | inactive: -0.138 | inactive: -0.075 | inactive: -0.028 | inactive: -0.086 | inactive: -0.35 | inactive: 0.106 | inactive: 0.21 | inactive: -0.129 | inactive: -0.104 | inactive: 0.186 | inactive: -0.055 | – | – |
| MAP4 (UniProt P27816) | inactive: -0.004 | inactive: 0.012 | inactive: -0.025 | inactive: -0.035 | inactive: 0.006 | inactive: -0.051 | inactive: 0.008 | inactive: -0.014 | inactive: 0.008 | inactive: 0.005 | inactive: 0.008 | inactive: 0.008 | inactive: 0.049 | inactive: -0.01 | inactive: -0.033 | inactive: -0.029 | inactive: 0 | inactive: -0.007 | – | – |
| MAGOHB (UniProt Q96A72) | inactive: 0.005 | active: 0.324 | inactive: 0.013 | inactive: -0.131 | inactive: 0.084 | inactive: 0.05 | inactive: -0.016 | inactive: 0.076 | inactive: -0.015 | inactive: -0.007 | inactive: -0.019 | inactive: -0.042 | inactive: 0.007 | inactive: 0.138 | inactive: -0.017 | inactive: 0.024 | inactive: 0 | inactive: 0.04 | – | – |
| LRRC8C (UniProt Q8TDW0) | inactive: 0.044 | inactive: 0.028 | inactive: -0.216 | inactive: 0.22 | inactive: 0.019 | inactive: -0.143 | inactive: 0.135 | inactive: 0.033 | – | inactive: 0.082 | inactive: 0.062 | inactive: 0.008 | inactive: 0.105 | inactive: 0.045 | inactive: -0.19 | inactive: -0.082 | inactive: -0.008 | inactive: 0.052 | – | inactive: 0.008 |
| LTO1 (UniProt Q8WV07) | inactive: 0.011 | inactive: 0.048 | inactive: -0.083 | inactive: -0.063 | inactive: -0.026 | inactive: -0.042 | inactive: 0.032 | inactive: 0.051 | inactive: -0.013 | inactive: -0.004 | inactive: -0.036 | inactive: -0.072 | inactive: 0 | inactive: 0.039 | inactive: -0.025 | inactive: -0.02 | inactive: -0.063 | inactive: 0.038 | – | – |
| LUC7L3 (UniProt O95232) | inactive: -0.001 | inactive: -0.045 | inactive: -0.022 | active: -0.219 | inactive: 0.065 | inactive: 0.02 | inactive: 0 | inactive: 0.099 | inactive: 0.001 | inactive: -0.001 | inactive: 0.091 | active: -2.05 | inactive: -0.037 | inactive: 0.052 | inactive: 0.007 | inactive: -0.019 | inactive: 0.036 | inactive: 0.02 | – | – |
| LYPLA2 (UniProt O95372) | inactive: -0.028 | inactive: 0.005 | inactive: 0.299 | inactive: -0.08 | inactive: -0.094 | inactive: 0.066 | inactive: 0.016 | inactive: 0.172 | inactive: 0.139 | inactive: 0.007 | inactive: 0.13 | inactive: -0.042 | inactive: 0 | inactive: -0.026 | inactive: 0.175 | inactive: 0.298 | inactive: -0.054 | inactive: 0.013 | – | – |
| MADD isoform 2 (UniProt Q8WXG6) | inactive: -0.086 | inactive: -0.076 | inactive: 0.057 | inactive: 0.205 | – | inactive: 0.099 | inactive: 0.026 | inactive: -0.124 | inactive: 0.071 | – | inactive: -0.174 | inactive: -0.059 | inactive: -0.003 | inactive: 0.131 | inactive: -0.181 | inactive: -0.031 | inactive: -0.075 | inactive: 0.099 | inactive: -0.068 | inactive: -0.026 |
| MARCKSL1 (UniProt P49006) | inactive: 0.032 | inactive: 0.09 | inactive: -0.006 | inactive: -0.094 | inactive: -0.006 | inactive: -0.074 | inactive: -0.047 | inactive: 0.071 | inactive: 0.04 | inactive: -0.087 | inactive: 0.003 | inactive: 0.014 | inactive: 0.062 | inactive: 0.009 | inactive: -0.008 | inactive: -0.004 | inactive: 0.034 | inactive: 0.005 | – | – |
| MAPK6 (UniProt Q16659) | inactive: 0.124 | inactive: 0.052 | inactive: 0.017 | inactive: 0.079 | inactive: 0.156 | inactive: -0.155 | inactive: -0.044 | – | inactive: 0.106 | inactive: -0.223 | inactive: -0.015 | inactive: 0.021 | inactive: 0.04 | inactive: 0.014 | inactive: 0.099 | – | inactive: -0.064 | inactive: 0.093 | inactive: 0.111 | inactive: -0.013 |

An excerpt of these results, tab-delimited.
Target	log2 fold change [1]	log2 fold change (crizotinib)	log2 fold change [2]	log2 fold change [3]	log2 fold change (gandotinib)	log2 fold change [4]	log2 fold change (doramapimod)	log2 fold change (ispinesib)	log2 fold change (bafetinib)	log2 fold change [5]	log2 fold change (nilotinib)	log2 fold change [6]	log2 fold change (dasatinib)	log2 fold change [7]	log2 fold change [8]	log2 fold change [9]	log2 fold change (tipifarnib)	log2 fold change (mubritinib)	log2 fold change (tozasertib)	log2 fold change (duvelisib)
LYZ (UniProt P61626)	inactive: 0.051	inactive: 0.343	inactive: -0.036	inactive: -0.103	–	inactive: -0.226	inactive: 0.091	inactive: 0.602	inactive: 0.958	–	inactive: 0.022	inactive: 0.098	inactive: -0.16	inactive: -0.015	inactive: -0.002	inactive: 0.248	inactive: -0.176	inactive: 0.288	inactive: -0.018	inactive: -0.107
MAPK6 (UniProt Q16659)	inactive: 0.124	inactive: 0.052	inactive: 0.017	inactive: 0.079	inactive: 0.156	inactive: -0.155	inactive: -0.044	–	inactive: 0.106	inactive: -0.223	inactive: -0.015	inactive: 0.021	inactive: 0.04	inactive: 0.014	inactive: 0.099	–	inactive: -0.064	inactive: 0.093	inactive: 0.111	inactive: -0.013
